# Values from PubChem BioAssay AID1159578 (Peter MacCallum Cancer Centre, 2015).
# Purpose: 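Genome-wide hunt for genes controlling movement of lymphatic endothelial cells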 (primary screen)
# System: human lymphatic endothelial cells
# Reagents: siRNA pool against human genes, 40 nM
# Timing: 48 h after transfection
# Measured: 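Cells stained with dye and imaged after a scratch; covered wound area and nuclei counted, duplicates averaged, migration set against mock wells and turned into a robust z-score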
# Reading the numbers: migration robust z-score: higher = faster migration into the scratch; migration relative to mock: higher = more scratch area covered than mock; nuclei per well: higher = more cells in the well
# Hit rule: 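Pools averaging fewer than 3300 nuclei are never called; remaining pools count as changed when migration robust z lies outside -2 to 2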
# Meaning of the calls: active = migration changed; inactive = no migration change, or too few cells
# This is a random part of about 18,000 reagents. In the full data, about 1,030 (5.7%) were called active. 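Inactive calls also include pools with fewer than 3300 nuclei, whose migration was not assessed.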 Raw values vary from plate to plate and are shown uncorrected.
gene,migration robust z-score,migration class with cell-count check,migration relative to mock,"nuclei per well, duplicate mean",Call
CYP2C18,-0.2,migration z between -2 and 2; enough cells,0.76,5778,inactive
KIF23,2.49,migration z above 2; enough cells,1.29,3622,active
PCSK6,-1.12,migration z between -2 and 2; enough cells,0.59,5010,inactive
LRRN4,1.28,migration z between -2 and 2; enough cells,1.21,6076,inactive
SPRYD4,0.56,migration z between -2 and 2; enough cells,1.03,6520,inactive
PPARGC1A,0.26,migration z between -2 and 2; enough cells,0.86,6126,inactive
LRRC52,0.67,migration z between -2 and 2; enough cells,1.07,5290,inactive
ZNF793,-0.07,migration z between -2 and 2; enough cells,0.87,5410,inactive
PTMS,0.29,migration z between -2 and 2; enough cells,0.96,5954,inactive
ADGRL4,-0.1,migration z between -2 and 2; enough cells,0.78,6057,inactive
KIF5A,0.83,migration z between -2 and 2; enough cells,0.96,5266,inactive
MICU1,-0.08,under 3300 nuclei; migration not judged,0.86,2656,inactive
COX10,-0.55,migration z between -2 and 2; enough cells,0.7,4228,inactive
OR51F1,-0.11,migration z between -2 and 2; enough cells,0.86,6040,inactive
CHN1,0.19,migration z between -2 and 2; enough cells,0.93,6535,inactive
GPA33,-0.17,migration z between -2 and 2; enough cells,0.84,6111,inactive
FAM91A1,-0.12,migration z between -2 and 2; enough cells,0.85,6194,inactive
OR8D2,-0.3,migration z between -2 and 2; enough cells,0.8,5382,inactive
PFKFB2,0.7,migration z between -2 and 2; enough cells,0.94,6218,inactive
INTS10,0.95,migration z between -2 and 2; enough cells,1.13,6516,inactive
UQCC4,-0.52,migration z between -2 and 2; enough cells,0.75,5158,inactive
SLC10A3,-0.35,migration z between -2 and 2; enough cells,0.79,4484,inactive
OR2J2,-0.34,migration z between -2 and 2; enough cells,0.8,5652,inactive
DDX59,0.29,migration z between -2 and 2; enough cells,0.86,5470,inactive
COX4I1,1.32,migration z between -2 and 2; enough cells,1.06,6141,inactive
C10orf88,-0.74,migration z between -2 and 2; enough cells,0.7,6204,inactive
SPAG1,-1.64,migration z between -2 and 2; enough cells,0.46,4264,inactive
TYW1,0.4,migration z between -2 and 2; enough cells,0.99,6141,inactive
CRIM1,-3.92,under 3300 nuclei; migration not judged,0.05,2766,inactive
HSPB6,0.64,migration z between -2 and 2; enough cells,1.05,5616,inactive
BTBD2,1.27,migration z between -2 and 2; enough cells,1.22,5532,inactive
SNX14,0.05,migration z between -2 and 2; enough cells,0.9,5852,inactive
SRGAP1,1.46,migration z between -2 and 2; enough cells,1.27,6666,inactive
COQ6,-0.29,migration z between -2 and 2; enough cells,0.75,6520,inactive
HSF1,1.34,migration z between -2 and 2; enough cells,1.06,5472,inactive
DNAH9,-0.62,migration z between -2 and 2; enough cells,0.72,5190,inactive
OR7G3,0.05,migration z between -2 and 2; enough cells,0.9,5268,inactive
ZPBP,-0.05,migration z between -2 and 2; enough cells,0.88,4884,inactive
GTF2H4,-0.44,migration z between -2 and 2; enough cells,0.72,5736,inactive

Reagents above called active, once more:
gene,migration robust z-score,migration class with cell-count check,migration relative to mock,"nuclei per well, duplicate mean",Call
KIF23,2.49,migration z above 2; enough cells,1.29,3622,active
